{"source": "paper PMC7862700", "assay_in_all_cases": "DAPPL (digital affinity profiling via proximity ligation, sequencing)", "details_in_all_cases": "10 mM Tris-HCl pH 7.5, 50 mM NaCl, 1 mM DTT, 4% glycerol, room temperature, 30 min; GST-TFs on glutathione beads, 16-mer random dsDNA library, 0.1% …; high values mean tight binding; double strand, one strand shown; scale: fold enrichment (6-mer frequency, TF over GST control)", "key": {"ELK1": {"target": "T1, ELK1 (UniProt P19419)", "T1 sequence": "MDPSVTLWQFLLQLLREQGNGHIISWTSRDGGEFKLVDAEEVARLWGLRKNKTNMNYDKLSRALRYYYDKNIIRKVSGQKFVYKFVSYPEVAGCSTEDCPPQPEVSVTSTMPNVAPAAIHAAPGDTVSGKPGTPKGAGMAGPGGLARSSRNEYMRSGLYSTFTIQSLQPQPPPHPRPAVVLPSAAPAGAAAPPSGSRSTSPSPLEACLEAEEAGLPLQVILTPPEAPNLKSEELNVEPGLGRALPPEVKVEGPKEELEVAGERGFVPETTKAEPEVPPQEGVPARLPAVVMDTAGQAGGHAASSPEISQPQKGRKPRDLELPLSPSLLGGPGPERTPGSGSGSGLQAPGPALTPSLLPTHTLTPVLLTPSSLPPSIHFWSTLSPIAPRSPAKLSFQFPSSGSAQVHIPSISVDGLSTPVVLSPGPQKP"}, "ELK3": {"target": "T2, ELK3 (UniProt P41970)", "T2 sequence": "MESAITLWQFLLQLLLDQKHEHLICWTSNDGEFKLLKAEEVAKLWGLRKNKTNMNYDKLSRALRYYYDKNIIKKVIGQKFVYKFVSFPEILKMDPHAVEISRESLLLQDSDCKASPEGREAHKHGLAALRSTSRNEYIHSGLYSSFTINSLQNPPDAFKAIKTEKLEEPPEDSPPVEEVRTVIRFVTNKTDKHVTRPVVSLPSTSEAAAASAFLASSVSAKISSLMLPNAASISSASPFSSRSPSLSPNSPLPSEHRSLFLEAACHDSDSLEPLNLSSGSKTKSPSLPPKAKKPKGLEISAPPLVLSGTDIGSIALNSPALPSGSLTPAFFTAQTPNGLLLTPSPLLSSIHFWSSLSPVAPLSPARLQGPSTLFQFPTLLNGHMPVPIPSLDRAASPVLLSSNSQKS"}, "SPIC": {"target": "T3, SPIC (UniProt Q8N5J4)", "T3 sequence": "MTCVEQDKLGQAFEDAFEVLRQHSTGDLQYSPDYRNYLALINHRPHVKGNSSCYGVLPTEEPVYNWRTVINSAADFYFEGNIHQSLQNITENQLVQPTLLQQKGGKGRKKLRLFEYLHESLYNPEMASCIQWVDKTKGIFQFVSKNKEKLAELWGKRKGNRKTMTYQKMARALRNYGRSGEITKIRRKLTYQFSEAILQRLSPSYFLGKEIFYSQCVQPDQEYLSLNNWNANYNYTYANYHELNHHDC"}, "ETS2": {"target": "T4, ETS2 (UniProt P15036)", "T4 sequence": "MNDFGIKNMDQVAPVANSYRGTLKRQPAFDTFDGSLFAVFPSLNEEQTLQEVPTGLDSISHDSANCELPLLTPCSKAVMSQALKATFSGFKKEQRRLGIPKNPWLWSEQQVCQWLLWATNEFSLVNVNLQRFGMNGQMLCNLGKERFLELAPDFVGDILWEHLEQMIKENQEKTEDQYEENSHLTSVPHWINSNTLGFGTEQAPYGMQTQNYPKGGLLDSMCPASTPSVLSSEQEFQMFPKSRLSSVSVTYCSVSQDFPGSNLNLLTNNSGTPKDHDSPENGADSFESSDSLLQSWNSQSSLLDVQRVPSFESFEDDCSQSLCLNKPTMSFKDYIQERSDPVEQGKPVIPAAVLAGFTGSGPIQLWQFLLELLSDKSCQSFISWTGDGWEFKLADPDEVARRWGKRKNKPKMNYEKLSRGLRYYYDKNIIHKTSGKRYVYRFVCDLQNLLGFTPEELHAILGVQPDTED"}, "ETV3": {"target": "T5, ETV3 (UniProt P41162-2)", "T5 sequence": "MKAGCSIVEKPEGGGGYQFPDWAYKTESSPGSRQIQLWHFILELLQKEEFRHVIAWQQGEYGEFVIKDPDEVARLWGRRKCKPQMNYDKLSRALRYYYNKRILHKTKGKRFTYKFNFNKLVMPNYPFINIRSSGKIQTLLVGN"}}, "note": "The entries are a selection whose mix differs from that of the whole data set. At the low end of the ranking the order means little."}
{"sequence": "ATCTTA", "values": [{"measurement": "binding signal", "setting": "ELK1", "result": 1.07}]}
{"sequence": "AAAATG", "values": [{"measurement": "binding signal", "setting": "ELK1", "result": 1.15}]}
{"sequence": "TCTAGA", "values": [{"measurement": "binding signal", "setting": "ELK1", "result": 0.99}]}
{"sequence": "ATTCAC", "values": [{"measurement": "binding signal", "setting": "ELK1", "result": 1.2}]}
{"sequence": "TATACC", "values": [{"measurement": "binding signal", "setting": "ELK1", "result": 1.31}]}
{"sequence": "AAGGAT", "values": [{"measurement": "binding signal", "setting": "ELK1", "result": 1.19}]}
{"sequence": "CGTCGC", "values": [{"measurement": "binding signal", "setting": "ELK1", "result": 1.2}]}
{"sequence": "TAACTG", "values": [{"measurement": "binding signal", "setting": "ELK3", "result": 1.26}, {"measurement": "binding signal", "setting": "SPIC", "result": 1.42}]}
{"sequence": "ACACCG", "values": [{"measurement": "binding signal", "setting": "ELK3", "result": 0.949}, {"measurement": "binding signal", "setting": "SPIC", "result": 0.899}]}
{"sequence": "GTTGCG", "values": [{"measurement": "binding signal", "setting": "ELK1", "result": 1.04}]}
{"sequence": "ATTTCG", "values": [{"measurement": "binding signal", "setting": "ELK1", "result": 1.25}]}
{"sequence": "GGGTTT", "values": [{"measurement": "binding signal", "setting": "ELK1", "result": 0.97}]}
{"sequence": "TAGATA", "values": [{"measurement": "binding signal", "setting": "ELK1", "result": 1.03}]}
{"sequence": "AAACCG", "values": [{"measurement": "binding signal", "setting": "ELK1", "result": 1.05}]}
{"sequence": "GTTCAC", "values": [{"measurement": "binding signal", "setting": "ELK1", "result": 1.23}]}
{"sequence": "AGCACA", "values": [{"measurement": "binding signal", "setting": "ELK1", "result": 1.01}]}
{"sequence": "AAGATT", "values": [{"measurement": "binding signal", "setting": "ELK1", "result": 1.17}]}
{"sequence": "TAGATG", "values": [{"measurement": "binding signal", "setting": "ELK1", "result": 1.29}]}
{"sequence": "CAACCG", "values": [{"measurement": "binding signal", "setting": "ELK1", "result": 1.13}]}
{"sequence": "GACATT", "values": [{"measurement": "binding signal", "setting": "ELK1", "result": 1.17}]}
{"sequence": "AAACAC", "values": [{"measurement": "binding signal", "setting": "ELK1", "result": 1.33}]}
{"sequence": "CGTACC", "values": [{"measurement": "binding signal", "setting": "ELK1", "result": 1.15}]}
{"sequence": "TGATAT", "values": [{"measurement": "binding signal", "setting": "ELK1", "result": 1.11}]}
{"sequence": "CAATGC", "values": [{"measurement": "binding signal", "setting": "ELK1", "result": 1.23}]}
{"sequence": "TACCTG", "values": [{"measurement": "binding signal", "setting": "ELK1", "result": 1.21}]}
{"sequence": "ATATCA", "values": [{"measurement": "binding signal", "setting": "ELK1", "result": 1.24}]}
{"sequence": "CGAACT", "values": [{"measurement": "binding signal", "setting": "ELK1", "result": 1.17}]}
{"sequence": "AAACGC", "values": [{"measurement": "binding signal", "setting": "ELK1", "result": 1.17}]}
{"sequence": "ACGAGC", "values": [{"measurement": "binding signal", "setting": "ELK1", "result": 0.993}, {"measurement": "binding signal", "setting": "ETS2", "result": 0.937}, {"measurement": "binding signal", "setting": "ETV3", "result": 0.985}]}
{"sequence": "GCACTC", "values": [{"measurement": "binding signal", "setting": "ELK1", "result": 1.5}, {"measurement": "binding signal", "setting": "ETS2", "result": 1.23}, {"measurement": "binding signal", "setting": "ETV3", "result": 1.28}]}
{"sequence": "AATTGA", "values": [{"measurement": "binding signal", "setting": "ELK1", "result": 1.19}, {"measurement": "binding signal", "setting": "ETS2", "result": 1.26}, {"measurement": "binding signal", "setting": "ETV3", "result": 1.17}]}
{"sequence": "GCAATG", "values": [{"measurement": "binding signal", "setting": "ELK1", "result": 1.08}, {"measurement": "binding signal", "setting": "ETS2", "result": 0.961}, {"measurement": "binding signal", "setting": "ETV3", "result": 1.03}]}
{"sequence": "AGTTAC", "values": [{"measurement": "binding signal", "setting": "ELK1", "result": 0.907}, {"measurement": "binding signal", "setting": "ETS2", "result": 0.966}, {"measurement": "binding signal", "setting": "ETV3", "result": 0.937}]}
{"sequence": "TTAGCC", "values": [{"measurement": "binding signal", "setting": "ELK1", "result": 0.927}, {"measurement": "binding signal", "setting": "ETS2", "result": 0.975}, {"measurement": "binding signal", "setting": "ETV3", "result": 0.979}]}
{"sequence": "ACCCAT", "values": [{"measurement": "binding signal", "setting": "ELK1", "result": 1.21}, {"measurement": "binding signal", "setting": "ETS2", "result": 1.37}, {"measurement": "binding signal", "setting": "ETV3", "result": 1.25}]}
{"sequence": "CACTGA", "values": [{"measurement": "binding signal", "setting": "ELK1", "result": 0.96}, {"measurement": "binding signal", "setting": "ETS2", "result": 1.04}, {"measurement": "binding signal", "setting": "ETV3", "result": 0.985}]}
{"sequence": "GCTGAC", "values": [{"measurement": "binding signal", "setting": "ELK1", "result": 1.1}, {"measurement": "binding signal", "setting": "ETS2", "result": 1.11}, {"measurement": "binding signal", "setting": "ETV3", "result": 1.17}]}
{"sequence": "AGTAAC", "values": [{"measurement": "binding signal", "setting": "ELK1", "result": 0.984}, {"measurement": "binding signal", "setting": "ETS2", "result": 0.965}, {"measurement": "binding signal", "setting": "ETV3", "result": 1.09}]}
{"sequence": "TGATAG", "values": [{"measurement": "binding signal", "setting": "ELK1", "result": 1.07}, {"measurement": "binding signal", "setting": "ETS2", "result": 1.06}, {"measurement": "binding signal", "setting": "ETV3", "result": 1.05}]}
{"sequence": "ACGCTC", "values": [{"measurement": "binding signal", "setting": "ELK1", "result": 0.96}, {"measurement": "binding signal", "setting": "ELK3", "result": 0.918}, {"measurement": "binding signal", "setting": "ETS2", "result": 0.971}, {"measurement": "binding signal", "setting": "ETV3", "result": 0.974}]}
{"sequence": "ACTGTC", "values": [{"measurement": "binding signal", "setting": "ELK1", "result": 0.995}, {"measurement": "binding signal", "setting": "ELK3", "result": 0.939}, {"measurement": "binding signal", "setting": "ETS2", "result": 0.955}, {"measurement": "binding signal", "setting": "ETV3", "result": 0.907}]}
